{
  "source": "the supplement of paper PMC8728848",
  "binders": {"B1": {"name": "OS9 (Arabidopsis thaliana) (protein)", "chain": "MRGSHHHHHHGMASMTGGQQMGRDLYDDDDKSRLQIFPAHLVGTFSRNNREPKYKIEFLPEDSPFHPGDNLESMVMLDKHGNRFLCYLPKEEKATSGWTSSQQNISTVMMETQQLVKLKTPDELLQPLSEKCLFRQEGWWSYEFCHQKYVRQLHVEDENKIVQEFFLGTFDPEATAAFNQTVSDASTDASQRYHSHVYTNGTTCDLTGSPAEVEVRFVCAETRAMVTSITELSTCKYALTVQCPTLCKHPLFQLEKPVSHTIHCNAIPVEEDATRNKEEQAVDESPKMIADS"}},
  "assay_in_all_cases": "glycan array binding signal (z-score within array); higher = stronger binding",
  "details_in_all_cases": "glycan notation: IUPAC condensed, linker removed; mutation: R201A",
  "key": {"[1]": {"target": "Fuc(a1-2)Gal(b1-4)GlcNAc(b1-3)Gal(b1-4)GlcNAc(b1-2)Man(a1-3)[Fuc(a1-2)Gal(b1-4)GlcNAc(b1-3)Gal(b1-4)GlcNAc(b1-2)Man(a1-6)]Man(b1-4)GlcNAc(b1-4)GlcNAc", "how_it_was_run": "(§1)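 Glycan array binding is given as a within-array Z-score, which can be read as non-binding when negative. The arrays, 3228 of them, came from the Consortium for Functional Glycomics database and were retained only where the protein sequence was available. Z-scores were averaged across arrays of the same protein sequence at different concentrations or buffers and across linkers.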"}, "[2]": {"target": "Fuc(a1-2)Gal(b1-4)GlcNAc(b1-3)Gal(b1-4)GlcNAc(b1-3)Gal(b1-4)GlcNAc", "how_it_was_run": "as §1"}, "[3]": {"target": "Fuc(a1-2)Gal(b1-4)GlcNAc(b1-3)GalNAc", "how_it_was_run": "as §1"}, "[4]": {"target": "Fuc(a1-2)Gal(b1-4)GlcNAc(b1-3)[Fuc(a1-2)Gal(b1-4)GlcNAc(b1-6)]GalNAc", "how_it_was_run": "as §1"}, "[5]": {"target": "Fuc(a1-2)Gal(b1-4)GlcNAc(b1-3)[Fuc(a1-3)[Gal(b1-4)]GlcNAc(b1-6)]Gal(b1-4)Glc", "how_it_was_run": "as §1"}, "[6]": {"target": "Fuc(a1-2)Gal(b1-4)GlcNAc(b1-6)GalNAc", "how_it_was_run": "as §1"}, "[7]": {"target": "Fuc(a1-2)Gal(b1-4)GlcNAc6S", "how_it_was_run": "as §1"}, "[8]": {"target": "Fuc(a1-2)Gal(b1-4)[Fuc(a1-3)]GlcNAc", "how_it_was_run": "as §1"}, "[9]": {"target": "Fuc(a1-2)Gal(b1-4)[Fuc(a1-3)]GlcNAc(b1-2)Man(a1-3)[Fuc(a1-2)Gal(b1-4)[Fuc(a1-3)]GlcNAc(b1-2)Man(a1-6)]Man(b1-4)GlcNAc(b1-4)[Fuc(a1-6)]GlcNAc", "how_it_was_run": "as §1"}, "[10]": {"target": "Fuc(a1-2)Gal(b1-4)[Fuc(a1-3)]GlcNAc(b1-2)[Fuc(a1-2)Gal(b1-4)[Fuc(a1-3)]GlcNAc(b1-4)]Man(a1-3)[Fuc(a1-2)Gal(b1-4)[Fuc(a1-3)]GlcNAc(b1-2)Man(a1-6)]Man(b1-4)GlcNAc(b1-4)GlcNAc", "how_it_was_run": "as §1"}, "[11]": {"target": "Fuc(a1-2)Gal(b1-4)[Fuc(a1-3)]GlcNAc(b1-3)Gal(b1-4)[Fuc(a1-3)]GlcNAc", "how_it_was_run": "as §1"}, "[12]": {"target": "Fuc(a1-2)Gal(b1-4)[Fuc(a1-3)]GlcNAc(b1-3)Gal(b1-4)[Fuc(a1-3)]GlcNAc(b1-3)Gal(b1-4)[Fuc(a1-3)]GlcNAc", "how_it_was_run": "as §1"}, "[13]": {"target": "Fuc(a1-2)Gal(b1-4)[Fuc(a1-3)]GlcNAc(b1-3)GalNAc", "how_it_was_run": "as §1"}, "[14]": {"target": "Fuc(a1-2)Gal(b1-4)[Fuc(a1-3)]GlcNAc(b1-3)[Neu5Ac(a2-6)Gal(b1-4)GlcNAc(b1-6)]Gal(b1-4)Glc", "how_it_was_run": "as §1"}, "[15]": {"target": "Fuc(a1-2)Gal3S(b1-4)GlcNAc", "how_it_was_run": "as §1"}, "[16]": {"target": "Fuc(a1-2)Gal6S(b1-3)GlcNAc", "how_it_was_run": "as §1"}, "[17]": {"target": "Fuc(a1-2)Gal6S(b1-3)GlcNAc6S", "how_it_was_run": "as §1"}, "Fuc(a1-2)Gal6S(b1-4)Glc": {"target": "Fuc(a1-2)Gal6S(b1-4)Glc", "how_it_was_run": "as §1"}, "[18]": {"target": "Fuc(a1-2)Gal6S(b1-4)Glc6S", "how_it_was_run": "as §1"}, "Fuc(a1-2)[Gal(a1-3)]Gal": {"target": "Fuc(a1-2)[Gal(a1-3)]Gal", "how_it_was_run": "as §1"}, "[19]": {"target": "Fuc(a1-2)[Gal(a1-3)]Gal(b1-3)GalNAc", "how_it_was_run": "as §1"}, "[20]": {"target": "Fuc(a1-2)[Gal(a1-3)]Gal(b1-3)GalNAc(b1-3)Gal(a1-4)Gal(b1-4)Glc", "how_it_was_run": "as §1"}, "[21]": {"target": "Fuc(a1-2)[Gal(a1-3)]Gal(b1-3)GlcNAc", "how_it_was_run": "as §1"}, "[22]": {"target": "Fuc(a1-2)[Gal(a1-3)]Gal(b1-3)GlcNAc(b1-2)Man(a1-3)[Fuc(a1-2)[Gal(a1-3)]Gal(b1-3)GlcNAc(b1-2)Man(a1-6)]Man(b1-4)GlcNAc(b1-4)GlcNAc", "how_it_was_run": "as §1"}, "[23]": {"target": "Fuc(a1-2)[Gal(a1-3)]Gal(b1-3)GlcNAc(b1-2)Man(a1-3)[Fuc(a1-2)[Gal(a1-3)]Gal(b1-3)GlcNAc(b1-2)Man(a1-6)]Man(b1-4)GlcNAc(b1-4)[Fuc(a1-6)]GlcNAc", "how_it_was_run": "as §1"}, "[24]": {"target": "Fuc(a1-2)[Gal(a1-3)]Gal(b1-3)GlcNAc(b1-3)GalNAc", "how_it_was_run": "as §1"}, "[25]": {"target": "Fuc(a1-2)[Gal(a1-3)]Gal(b1-3)GlcNAc(b1-6)GalNAc", "how_it_was_run": "as §1"}, "[26]": {"target": "Fuc(a1-2)[Gal(a1-3)]Gal(b1-4)Glc", "how_it_was_run": "as §1"}, "[27]": {"target": "Fuc(a1-2)[Gal(a1-3)]Gal(b1-4)GlcNAc", "how_it_was_run": "as §1"}, "[28]": {"target": "Fuc(a1-2)[Gal(a1-3)]Gal(b1-4)GlcNAc(b1-2)Man", "how_it_was_run": "as §1"}},
  "note": "This is one part of the list.",
  "data": [
    {"binder": "B1", "values": [
      {"measurement": "glycan array binding signal (z-score)", "setting": "[1]", "result": -0.059},
      {"measurement": "glycan array binding signal (z-score)", "setting": "[2]", "result": -0.84},
      {"measurement": "glycan array binding signal (z-score)", "setting": "[3]", "result": -0.821},
      {"measurement": "glycan array binding signal (z-score)", "setting": "[4]", "result": -0.834},
      {"measurement": "glycan array binding signal (z-score)", "setting": "[5]", "result": -0.817},
      {"measurement": "glycan array binding signal (z-score)", "setting": "[6]", "result": -1.24},
      {"measurement": "glycan array binding signal (z-score)", "setting": "[7]", "result": -0.26},
      {"measurement": "glycan array binding signal (z-score)", "setting": "[8]", "result": -0.195},
      {"measurement": "glycan array binding signal (z-score)", "setting": "[9]", "result": 0.249},
      {"measurement": "glycan array binding signal (z-score)", "setting": "[10]", "result": 0.609},
      {"measurement": "glycan array binding signal (z-score)", "setting": "[11]", "result": 0.038},
      {"measurement": "glycan array binding signal (z-score)", "setting": "[12]", "result": 0.684},
      {"measurement": "glycan array binding signal (z-score)", "setting": "[13]", "result": 0.155},
      {"measurement": "glycan array binding signal (z-score)", "setting": "[14]", "result": -0.261},
      {"measurement": "glycan array binding signal (z-score)", "setting": "[15]", "result": -1.05},
      {"measurement": "glycan array binding signal (z-score)", "setting": "[16]", "result": 0.666},
      {"measurement": "glycan array binding signal (z-score)", "setting": "[17]", "result": 0.575},
      {"measurement": "glycan array binding signal (z-score)", "setting": "Fuc(a1-2)Gal6S(b1-4)Glc", "result": 0.363},
      {"measurement": "glycan array binding signal (z-score)", "setting": "[18]", "result": 0.982},
      {"measurement": "glycan array binding signal (z-score)", "setting": "Fuc(a1-2)[Gal(a1-3)]Gal", "result": -0.727},
      {"measurement": "glycan array binding signal (z-score)", "setting": "[19]", "result": 0.19},
      {"measurement": "glycan array binding signal (z-score)", "setting": "[20]", "result": -1.04},
      {"measurement": "glycan array binding signal (z-score)", "setting": "[21]", "result": -0.124},
      {"measurement": "glycan array binding signal (z-score)", "setting": "[22]", "result": -0.718},
      {"measurement": "glycan array binding signal (z-score)", "setting": "[23]", "result": 0.163},
      {"measurement": "glycan array binding signal (z-score)", "setting": "[24]", "result": -0.217},
      {"measurement": "glycan array binding signal (z-score)", "setting": "[25]", "result": -0.469},
      {"measurement": "glycan array binding signal (z-score)", "setting": "[26]", "result": -1.11},
      {"measurement": "glycan array binding signal (z-score)", "setting": "[27]", "result": -0.917},
      {"measurement": "glycan array binding signal (z-score)", "setting": "[28]", "result": -0.752}
    ]}
  ]
}
